Measurements: US20210198372A1, “METHODS FOR DOSING AND FOR MODULATION OF GENETICALLY ENGINEERED CELLS” (Juno Therapeutics, Inc., priority 2017, published 2021)
For at least one compound, name, drawing or mass did not settle the structure.

Experiments:
[1] = equivalence in terms of potency for various glucocorticoids; route (IV or PO; IV; none); cited from earlier work
CAR+ T cells = assay: Early intervention with high-dose dexamethasone for CRS and neurotoxicity after CAR+ T cells; type: in vivo, human; details: Ex 9, one subject

For C[C@@H]1C[C@H]2[C@@H]3CCC4=CC(=O)C=C[C@]4(C)[C@@]3(F)[C@@H](O)C[C@]2(C)[C@@]1(O)C(=O)CO [Dexamethasone], which “Equivalency Potency” value [1] is on record?
The value was 0.5-0.75.

And the “outcome of severe neurotoxicity” value (CAR+ T cells; 10 mg to 40 mg daily)?
The value was “resolved completely”.

What about the “effect on expansion of CAR+ T cells” value (CAR+ T cells; high dose (up to 40 mg daily), maintained until Day 14) of the same compound?
Its value is “subsequent attenuation of expansion of CAR+ T cells”.
